Results are given in words; binding and its absence hold for the method and conditions named. Some entries that bind do so weakly or less than the wild type. Sequences can lack the tags named with a protein.

For experiment [1], the target named is T1, AtCERK1 (Arabidopsis chitin elicitor receptor kinase 1), cell-free synthesised, FLAG-tagged (Arabidopsis) (UniProt A8R7E6).
T1 sequence: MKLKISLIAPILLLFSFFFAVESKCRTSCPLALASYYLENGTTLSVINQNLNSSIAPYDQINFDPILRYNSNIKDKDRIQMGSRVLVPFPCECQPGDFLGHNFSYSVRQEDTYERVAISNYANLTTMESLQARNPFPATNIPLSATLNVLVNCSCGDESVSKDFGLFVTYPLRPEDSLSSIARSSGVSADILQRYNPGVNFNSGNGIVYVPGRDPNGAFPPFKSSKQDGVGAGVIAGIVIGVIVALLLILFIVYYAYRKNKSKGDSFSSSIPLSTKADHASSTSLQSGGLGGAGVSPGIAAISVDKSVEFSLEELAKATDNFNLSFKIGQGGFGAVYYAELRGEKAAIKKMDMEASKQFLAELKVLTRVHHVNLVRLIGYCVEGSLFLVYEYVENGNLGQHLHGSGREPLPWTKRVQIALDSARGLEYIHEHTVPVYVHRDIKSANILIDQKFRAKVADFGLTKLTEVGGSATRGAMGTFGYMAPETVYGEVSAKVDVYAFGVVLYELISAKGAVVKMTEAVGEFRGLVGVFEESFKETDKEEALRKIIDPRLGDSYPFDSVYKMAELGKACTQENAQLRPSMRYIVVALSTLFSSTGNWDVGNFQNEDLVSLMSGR
As to the kind of experiment: AlphaScreen or HTRF; AlphaScreen between biotinylated and FLAG-conjugated proteins synthesised in a cell-free system.

In experiment [2] the target is T2, AtHAK1 (Arabidopsis HDS-associated receptor-like kinase 1), cell-free synthesised, biotinylated (bls) copy and FLAG-tagged copy (Arabidopsis) (UniProt C0LGD7).
T2 sequence (chain, biotin on the biotin ligation site (bls copy only)): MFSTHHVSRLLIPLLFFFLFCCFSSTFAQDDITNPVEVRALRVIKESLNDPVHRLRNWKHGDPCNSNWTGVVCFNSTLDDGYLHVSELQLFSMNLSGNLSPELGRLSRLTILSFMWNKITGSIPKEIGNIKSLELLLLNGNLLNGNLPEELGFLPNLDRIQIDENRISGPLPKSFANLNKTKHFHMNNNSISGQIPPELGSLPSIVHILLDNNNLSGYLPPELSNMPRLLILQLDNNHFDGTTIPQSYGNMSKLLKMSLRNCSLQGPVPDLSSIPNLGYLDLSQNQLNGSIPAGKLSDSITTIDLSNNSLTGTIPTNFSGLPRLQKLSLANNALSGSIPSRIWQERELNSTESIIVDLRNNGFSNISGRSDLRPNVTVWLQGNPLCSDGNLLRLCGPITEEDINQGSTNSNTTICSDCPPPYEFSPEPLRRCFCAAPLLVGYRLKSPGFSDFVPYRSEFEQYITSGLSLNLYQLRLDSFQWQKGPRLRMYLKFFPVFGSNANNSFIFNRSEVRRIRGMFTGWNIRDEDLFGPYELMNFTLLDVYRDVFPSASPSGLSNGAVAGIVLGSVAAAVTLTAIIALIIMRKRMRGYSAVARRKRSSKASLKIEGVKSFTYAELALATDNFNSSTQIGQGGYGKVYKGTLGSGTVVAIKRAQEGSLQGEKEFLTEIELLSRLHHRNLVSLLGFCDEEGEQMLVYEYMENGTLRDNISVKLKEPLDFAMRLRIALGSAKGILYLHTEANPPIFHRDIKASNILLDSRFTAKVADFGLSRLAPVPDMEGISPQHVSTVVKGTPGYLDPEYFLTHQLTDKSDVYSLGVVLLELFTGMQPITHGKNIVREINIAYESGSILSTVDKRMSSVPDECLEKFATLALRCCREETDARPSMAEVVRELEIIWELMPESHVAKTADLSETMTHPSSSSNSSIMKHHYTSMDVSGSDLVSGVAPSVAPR
The experiment is described as above.

B1: AtPBL27, cell-free synthesised, biotinylated (protein, UniProt Q1PDV6 1-513)
chain: MSGCLPCFGSSAKDAASKDSVKKELSAKDGSVTQSHHISLDKSKSRRGPEQKKELTAPKEGPTAHIAAQTFTFRELAAATKNFRPECLLGEGGFGRVYKGRLETTGQIVAVKQLDRNGLQGNREFLVEVLMLSLLHHPNLVNLIGYCADGDQRLLVYEYMPLGSLEDHLHDLPPDKEPLDWSTRMTIAAGAAKGLEYLHDKANPPVIYRDLKSSNILLGDGYHPKLSDFGLAKLGPVGDKTHVSTRVMGTYGYCAPEYAMTGQLTLKSDVYSFGVVFLELITGRKAIDNARAPGEHNLVAWARPLFKDRRKFPKMADPSLQGRYPMRGLYQALAVAAMCLQEQAATRPLIGDVVTALTYLASQTFDPNAPSGQNSRSGSGPPFIRTRDDRRSLGDGSSLDSPAETRSRLGSPATHKNSPDYRRRDMVREVNAGSEGGSETGGGSGRKWGLSDLEGQESQRGSPASVGRSSRGTPRNRDLDRERAVAEAKVWGENWRERKRATNGPGSFDSTND
modifications: biotin on the biotin ligation site
For B1, the binding result in experiment [1] and in experiment [2] was “binds” throughout.

These data come from PMC7210110.
